From US7737121B2, “Insulin secretion by anthocyanins and anthocyanidins” (Board of Trustees of Michigan State University, priority 2004, dated 2010)
At least one structure is not confirmed: it was looked up by name or label, or the drawing left a doubt.

Tested on: INS-1 832/13 cells
Test: Insulin secretion by INS-1 832/13 pancreatic beta cells (static secretion, insulin by RIA, normalized to cellular protein)
Assay type: cell-based, rodent
Conditions: 4 mM glucose; 50 μg/mL compound
Protocol: Insulin Secretion Studies. INS-1 832/13 cells (kindly provided by Dr Christopher Newgard, Duke University, NC) (18) were routinely cultured in 5% CO2/air at 37° C. in RPMI-1640 medium containing 11.1 mM glucose and supplemented with 10% FBS (Fetal Bovine Serum), 10 mM HEPES, 100 U/ml penicillin, 100 μg/ml streptomycin, 4 mM Glutamine, 1 mM sodium pyruvate, and 50 μM 2-mercaptoethanol. Cells were passed weekly after trypsin-EDTA detachment. For static secretion studies, cells were plated on 24 well plates at a density of 0.64×10^6 cells per well and grown for 24 h. The cells were then cultured for an additional 24 h in RPMI-1640 containing 4 mM glucose and the supplements described above. Cells were then incubated twice for 30 min in Krebs Ringer Bicarbonate buffer (KRBB) containing 4 mM glucose and 0.1% BSA. […] Cellular protein concentration was then determined by Lowry assay. […] The insulin secreted into the medium by the cells was determined by radioimmuno assay and normalized to total cellular protein.
Radio Immuno Assay (RIA). […] The tubes were then centrifuged and the radioactivity was measured using a gamma counter.
Lowry protein Assay. The amount of protein in the assay wells was determined by Lowry method (Francis, J. A., et al., Helv. Chim. Acta 87 317-326 (2004)). […] The optical density of resulting solutions was read at 700 nm using a UV spectrophotometer.

Question: `COc1cc(-c2[o+]c3cc(O)cc(O)c3cc2O)cc(OC)c1O` [Compound 8, malvidin] was tested. Which “effect on insulin secretion, result in words” value did it give?
Answer: did not show an increase in insulin secretion
